No constants are given. Whether binding was seen depends on the method and setting. Binding seen in cells or lysates may run through a third protein. Some results given as binding are weak or reduced against the parent protein; the word gives no strength. Tags and fused reporters may be left off the sequences shown.
Molecular target: T1, DC-STAMP tagged with HA at the C-terminus (DC-STAMP–HA), full length (murine) (UniProt Q7TNJ0)
T1 sequence: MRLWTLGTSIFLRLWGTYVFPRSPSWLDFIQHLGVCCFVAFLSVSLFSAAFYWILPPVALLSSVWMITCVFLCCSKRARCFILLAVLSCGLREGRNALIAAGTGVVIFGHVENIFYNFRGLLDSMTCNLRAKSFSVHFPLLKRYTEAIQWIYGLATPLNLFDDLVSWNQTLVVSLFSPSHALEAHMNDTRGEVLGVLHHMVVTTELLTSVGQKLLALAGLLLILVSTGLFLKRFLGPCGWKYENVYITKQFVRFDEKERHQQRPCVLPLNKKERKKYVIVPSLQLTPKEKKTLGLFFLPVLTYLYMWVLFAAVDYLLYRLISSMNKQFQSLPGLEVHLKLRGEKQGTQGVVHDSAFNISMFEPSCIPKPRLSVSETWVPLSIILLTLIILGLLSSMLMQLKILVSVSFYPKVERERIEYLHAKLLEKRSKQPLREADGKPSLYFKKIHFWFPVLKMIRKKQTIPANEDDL
Experiment: co-IP; HeLa cells co-transfected with FLAG–Luman and DC-STAMP–HA plasmids, harvested 24 h after transfection, lysed with SDS lysis buffer; IP with anti-HA rabbit monoclonal antibodies and rProteinG agarose, washed five times with TBS; western blot with anti-FLAG or anti-HA

B1: Luman tagged with FLAG at the N-terminus (FLAG–Luman) (protein, UniProt Q61817 1-404)
chain: MDPGGQDLLALDPGDQDLLGFLLEESGDLWAATEPDVKASLDLELSPSENSVQELSDWEVEDLLSSLLSPSVSRDVLGSSSSSILHDHNYSLPQEHVSIDLGECEMISCRGRRELTGLAGSTFPFADTESFEKEGFHVTPLPGEERAAEQEMSRLILTEEEKKLLEKEGLTLPSTLPLTKVEEQVLKRVRRKIRNKRAAQESRKKKKVYVVGLESRVLKYTAQNRELQNKVQRLEEQNLSLLDQLRKLQAMVIEIANKTSSGSTCVLVLVFSFCLLLVPAMYSSDARGSVPAEYVVLHRKLRALPSEDDHQPKPSALSSELPMDSTHQSLDSSEHMFLVSSNFSCVLYHAPQAEQPLHWPLWDLSSEMLFSDSNLLLQANLSESEGWQPNHSPSLVIFQGRYSG
- binding: binds

Reference: paper PMC4712816
